Data as given in PubChem BioAssay AID2061321 (National Center for Advancing Translational Sciences (NCATS), 2025).
Inconclusive results, whose numbers are uncertain, are shown with a selection of clear calls. Potencies of inconclusive entries are doubtful fits and often do not repeat. Calls of active or inactive are those of the source. The call rests on the fitted dose curve; in most records, active means well fitted inhibition curve with a large enough effect; inconclusive means small, poorly fitted or top-dose-only effect; inactive means flat fitted curve, though single readings scatter.

Experiment: Identification of antibody-drug conjugate (ADC) payloads which are substrates of ATP-binding cassette drug efflux transporters: ABCG2-H460 cell line
Conditions: H460 MX20 (ABCG2) viability, CellTiter-Glo, 48 h
Excerpt: Antibody-drug conjugates (ADCs) feature an antibody recognizing a specific protein joined to a potent toxic payload. Numerous antibody-drug conjugates have received FDA approval; however, clinical resistance arises. Resistance mechanisms include decreased expression or mutation of the antibody target, impaired payload release, or increased expression of ATP-binding cassette (ABC) efflux transporters associated with multidrug resistance. We therefore sought to characterize the interaction of ABC multidrug transporters with ADC payloads. We performed a high-throughput screen with 27 common ADC payloads using cells lines expressing ABC transporters P-glycoprotein (P-gp, encoded by ABCB1) or ABCG2 (encoded by ABCG2). Confirmatory assays were also performed using cells transfected to express P-gp, ABCG2, or MRP1 (encoded by ABCC1). Several commonly used ADC payloads were substrates of P-gp, including calicheamicin gamma1, monomethyl auristatin E, DM1, and DM4. All the pyrrolobenzodiazepines tested - SJG136, SGD-1882, SG2057, and SG3199 - were substrates of P-gp, ABCG2, and MRP1. […] These findings highlight the risk of transporter-mediated resistance with certain ADC payloads and underscore the importance of selecting payloads that evade ABC transporter recognition in future ADC development.
HEK-293 cells were transfected with empty vector (pcDNA) or vector containing the human ABCB1 (MDR-19), ABCG2 (R-5), or ABCC1 gene (MRP1) and were maintained in EMEM with 2 mg/mL G418 added to maintain transporter expression. The HeLa derivative KB-3-1 and the P-gp overexpressing KB-8-5-11 subline were maintained in DMEM; KB-8-5-11 additionally received 100 ng/mL colchicine. H460 parental cells were obtained from the Division of Cancer Treatment and Diagnosis Tumor Repository, National Cancer Institute at Frederick, MD and were cultured in RPMI. The ABCG2 expressing subline H460 MX20 was generated by selecting H460 cells in 20 nM mitoxantrone. Media in all cases was supplemented with 10% FBS and 1% penicillin-streptomycin. We explored 27 common ADC payloads, in two orthogonal, paired cell line sets-a drug selected and transfected set for each transporter--to identify substrates of the ABC transporters P-gp and ABCG2. Compounds were sourced from Levena Biopharma (San Diego, CA), Selleck Chem (Houston, TX), ChemieTek (Indianapolis, IN), or Microsource Discovery Systems (Gaylordsville, CT). Screening was performed as previously described. Briefly, cells were plated at a density of 500 cells/well in 1536 well plates with compounds added using a 1536-head pin tool (Kalypsys, San Diego CA). Cells were incubated with cytotoxic drugs and processed with CellTiter Glo reagent (Promega, Madison, WI) to determine viability after 48 hours. P-gp substrates were identified by comparing compound activity between paired sets of low-expressing (sensitive) and over-expressing (resistant) cell lines.

Row | Structure (SMILES) | Potency
1 | COc1ccc(C2=CN3C(=O)c4cc(OC)c(OCCCOc5cc6c(cc5OC)C(=O)N5C=C(c7ccc(N)cc7)C[C@@H]5C=N6)cc4N=C[C@H]3C2)cc1 | inconclusive: 6 nM [falling, full curve]
2 | CC[C@H](C)[C@@H]([C@H](N)CC(=O)N1CCC[C@H]1[C@H](OC)[C@@H](C)C(=O)N[C@@H](Cc1ccccc1)c1nccs1)N(C)C(=O)[C@@H](NC(=O)[C@H](C(C)C)N(C)C)C(C)C | inconclusive: 0.5 nM [full curve]
3 | COc1cccc2c1C(=O)c1c(O)c3c(c(O)c1C2=O)C[C@@](O)(C(=O)CO)C[C@@H]3O[C@H]1C[C@H](N)[C@H](O)[C@H](C)O1 | active: 377 nM
4 | Cc1nc(Nc2ncc(C(=O)Nc3c(C)cccc3Cl)s2)cc(N2CCN(CCO)CC2)n1 | inconclusive: 845 nM [falling, partial curve]
5 | CCc1c2c(nc3ccc(O)cc13)-c1cc3c(c(=O)n1C2)COC(=O)[C@]3(O)CC | active: 11.9 nM
6 | CCN(C(C)=O)[C@H]1CO[C@@H](O[C@H]2[C@H](O[C@H]3C#C/C=C\C#C[C@]4(O)CC(=O)C(NC(=O)OC)=C3/C4=C\CSSSC)O[C@H](C)[C@@H](NO[C@H]3C[C@H](O)[C@H](SC(=O)c4c(C)c(I)c(O[C@@H]5O[C@@H](C)[C@H](O)[C@@H](OC)[C@H]5O)c(OC)c4OC)[C@@H](C)O3)[C@@H]2O)C[C@@H]1OC | active: 7.5 nM
7 | CC[C@H](C)[C@@H]([C@H](N)CC(=O)N1CCC[C@H]1[C@H](OC)[C@@H](C)C(=O)N[C@@H](Cc1ccccc1)c1nccs1)N(C)C(=O)[C@@H](NC(=O)[C@@H](NC)C(C)C)C(C)C | inconclusive: 0.3 nM [full curve]
